Paper PMC4380928
Results are given in words; binding and its absence hold for the method and conditions named. Some entries that bind do so weakly or less than the wild type.

The chains behind the UniProt entries cited, without tags or fusion partners. Where a name states a change or a piece, a line headed by the entry shows the natural chain unless it says otherwise.
UniProt O60636: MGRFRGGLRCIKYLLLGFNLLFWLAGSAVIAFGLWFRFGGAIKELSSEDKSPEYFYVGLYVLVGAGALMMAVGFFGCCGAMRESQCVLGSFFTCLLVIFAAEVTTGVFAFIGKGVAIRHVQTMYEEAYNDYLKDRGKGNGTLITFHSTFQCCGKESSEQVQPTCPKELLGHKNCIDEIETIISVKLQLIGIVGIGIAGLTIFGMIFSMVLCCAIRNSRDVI
UniProt P35568: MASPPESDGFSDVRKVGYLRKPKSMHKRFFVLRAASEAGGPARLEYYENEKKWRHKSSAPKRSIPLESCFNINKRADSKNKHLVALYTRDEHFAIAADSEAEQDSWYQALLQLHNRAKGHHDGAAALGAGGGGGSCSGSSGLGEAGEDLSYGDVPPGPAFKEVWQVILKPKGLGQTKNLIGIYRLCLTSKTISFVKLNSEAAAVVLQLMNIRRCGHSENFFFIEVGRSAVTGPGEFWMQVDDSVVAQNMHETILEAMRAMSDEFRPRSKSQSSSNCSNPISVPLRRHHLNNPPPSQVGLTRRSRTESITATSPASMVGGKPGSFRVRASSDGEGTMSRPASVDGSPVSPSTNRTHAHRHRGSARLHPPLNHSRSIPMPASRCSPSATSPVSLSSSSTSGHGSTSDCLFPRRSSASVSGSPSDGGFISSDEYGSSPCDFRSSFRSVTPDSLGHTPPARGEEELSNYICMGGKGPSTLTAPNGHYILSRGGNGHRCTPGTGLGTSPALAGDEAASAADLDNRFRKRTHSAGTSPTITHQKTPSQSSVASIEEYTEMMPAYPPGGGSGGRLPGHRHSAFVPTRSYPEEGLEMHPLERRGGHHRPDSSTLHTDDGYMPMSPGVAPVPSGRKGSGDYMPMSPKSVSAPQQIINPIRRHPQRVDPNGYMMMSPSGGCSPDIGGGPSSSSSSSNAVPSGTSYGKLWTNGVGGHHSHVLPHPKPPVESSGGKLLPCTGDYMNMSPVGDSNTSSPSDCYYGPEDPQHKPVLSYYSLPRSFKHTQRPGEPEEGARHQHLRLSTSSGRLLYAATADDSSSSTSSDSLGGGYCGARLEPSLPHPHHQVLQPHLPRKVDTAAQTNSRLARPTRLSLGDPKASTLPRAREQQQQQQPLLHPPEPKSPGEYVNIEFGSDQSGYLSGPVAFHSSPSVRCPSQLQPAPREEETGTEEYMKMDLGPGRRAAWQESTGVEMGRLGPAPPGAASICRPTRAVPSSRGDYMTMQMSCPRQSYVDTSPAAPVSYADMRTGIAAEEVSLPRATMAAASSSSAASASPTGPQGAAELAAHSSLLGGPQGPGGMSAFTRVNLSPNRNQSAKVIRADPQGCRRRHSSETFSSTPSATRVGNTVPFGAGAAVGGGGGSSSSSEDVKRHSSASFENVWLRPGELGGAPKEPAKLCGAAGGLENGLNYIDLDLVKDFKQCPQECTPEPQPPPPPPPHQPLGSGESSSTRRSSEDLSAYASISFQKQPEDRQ

Experiments:
[1] = molecular target: PIK3R3 (p55γ regulatory subunit of PI3 kinase), two-hybrid bait (human) (UniProt Q92569); assay: two-hybrid; pairwise pY-Y2H with active FYN kinase co-expressed; growth on selective medium without histidine and uracil (SD5), β-galactosidase assay
[2] = molecular target: PIK3R3 (p55γ regulatory subunit of PI3 kinase), two-hybrid bait (human) (UniProt Q92569); assay: condition: only in the absence of active FYN kinase; two-hybrid; the same pairwise Y2H without active kinase: no FYN, or kinase-inactive FYN mutant (Fyn-KD, K299M)
[3] = molecular target: T1, TSPAN2 15-mer peptide centered on Y128, phosphorylated version (human) (UniProt O60636); assay: peptide or protein array; PepStar peptide microarray (JPT) with phosphorylated and non-phosphorylated 15-mers, probed with serial dilutions of purified GST fusion proteins; detected with anti-GST-DyLight649 or primary and secondary antibodies; both purified
T1 sequence (peptide, phosphorylated version (phospho-tyrosine)): QTMYEEAYNDYLKDR

[4] = molecular target: T2, TSPAN2 15-mer peptide centered on Y13, phosphorylated version (human) (UniProt O60636); assay: as above
T2 sequence (peptide, phosphorylated version (phospho-tyrosine)): GGLRCIKYLLLGFNL

[5] = molecular target: T3, TSPAN2 15-mer peptide centered on Y54, phosphorylated version (human) (UniProt O60636); assay: as above
T3 sequence (peptide, phosphorylated version (phospho-tyrosine)): SEDKSPEYFYVGLYV

[6] = molecular target: T4, TSPAN2 15-mer peptide centered on Y131, phosphorylated version (human) (UniProt O60636); assay: as above
T4 sequence (peptide, phosphorylated version (phospho-tyrosine)): YEEAYNDYLKDRGKG

[7] = molecular target: T5, TSPAN2 15-mer peptide centered on Y56, phosphorylated version (human) (UniProt O60636); assay: as above
T5 sequence (peptide, phosphorylated version (phospho-tyrosine)): DKSPEYFYVGLYVLV

[8] = molecular target: T6, TSPAN2 15-mer peptide centered on Y60, phosphorylated version (human) (UniProt O60636); assay: as above
T6 sequence (peptide, phosphorylated version (phospho-tyrosine)): EYFYVGLYVLVGAGA

Substance: IRS1, two-hybrid prey (from UniProt P35568 1-1242)
- binding [1]: binds
- binding [2]: no binding

Substance: GST-PIK3R3 (FL, aa 1-461) (from UniProt Q92569 1-461)
- binding [3]: no binding
- binding [4]: no binding
- binding [5]: no binding
- binding [6]: no binding
- binding [7]: no binding
- binding [8]: no binding
